In this assay the target is TEF5-3xHA (THYLAKOID ENRICHED FRACTION 5 with a C-terminal 3xHA tag) (Chlamydomonas reinhardtii). In words: affinity purification with mass spectrometry; in vivo cross-linking with 0.37% formaldehyde; membrane-enriched fraction solubilised with 1% α-DDM in TNMK buffer; HA-coupled magnetic beads; LC-MS/MS of the precipitates, 3 replicates.

These are yes or no findings as the source states them, for the method shown. In cells and extracts the contact can be indirect. Here binding means that the protein was enriched with, or labelled near, the bait; the list need not be complete.

B1: PsaD (protein, UniProt Q39615 36-196)
chain: EAEAAPAAAKKAAEKPAWTVPTLNPDTPSPIFGGSTGGLLRKAQTEEFYVITWEAKKEQIFEMPTGGAAIMRQGPNLLKFGKKEQCLALTTQLRNKFKLTPCFYRVFPDGKVQYLHPADGVYPEKVNAGRVGANQNMRRIGQNVNPIKVKFSGRMMSPAEI
With B1, the binding entry is “binds”.

These data come from paper PMC12164590.
